Our source for the binding values is paper PMC9163188.

Sequences of proteins named here, by UniProt entry; tags and fusion partners are left off.
UniProt P99999: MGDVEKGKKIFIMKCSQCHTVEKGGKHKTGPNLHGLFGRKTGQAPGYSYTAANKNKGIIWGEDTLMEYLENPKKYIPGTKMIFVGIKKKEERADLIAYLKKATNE

No constants are given. Whether binding was seen depends on the method and setting. Binding seen in cells or lysates may run through a third protein. A yes stands for co-enrichment or nearness to the bait. Other partners may have been found. Sequences can lack the tags named with a protein.

The test has as its target T1, Flag-USP53 (ubiquitin-specific peptidase 53) (UniProt Q70EK8).
T1 sequence: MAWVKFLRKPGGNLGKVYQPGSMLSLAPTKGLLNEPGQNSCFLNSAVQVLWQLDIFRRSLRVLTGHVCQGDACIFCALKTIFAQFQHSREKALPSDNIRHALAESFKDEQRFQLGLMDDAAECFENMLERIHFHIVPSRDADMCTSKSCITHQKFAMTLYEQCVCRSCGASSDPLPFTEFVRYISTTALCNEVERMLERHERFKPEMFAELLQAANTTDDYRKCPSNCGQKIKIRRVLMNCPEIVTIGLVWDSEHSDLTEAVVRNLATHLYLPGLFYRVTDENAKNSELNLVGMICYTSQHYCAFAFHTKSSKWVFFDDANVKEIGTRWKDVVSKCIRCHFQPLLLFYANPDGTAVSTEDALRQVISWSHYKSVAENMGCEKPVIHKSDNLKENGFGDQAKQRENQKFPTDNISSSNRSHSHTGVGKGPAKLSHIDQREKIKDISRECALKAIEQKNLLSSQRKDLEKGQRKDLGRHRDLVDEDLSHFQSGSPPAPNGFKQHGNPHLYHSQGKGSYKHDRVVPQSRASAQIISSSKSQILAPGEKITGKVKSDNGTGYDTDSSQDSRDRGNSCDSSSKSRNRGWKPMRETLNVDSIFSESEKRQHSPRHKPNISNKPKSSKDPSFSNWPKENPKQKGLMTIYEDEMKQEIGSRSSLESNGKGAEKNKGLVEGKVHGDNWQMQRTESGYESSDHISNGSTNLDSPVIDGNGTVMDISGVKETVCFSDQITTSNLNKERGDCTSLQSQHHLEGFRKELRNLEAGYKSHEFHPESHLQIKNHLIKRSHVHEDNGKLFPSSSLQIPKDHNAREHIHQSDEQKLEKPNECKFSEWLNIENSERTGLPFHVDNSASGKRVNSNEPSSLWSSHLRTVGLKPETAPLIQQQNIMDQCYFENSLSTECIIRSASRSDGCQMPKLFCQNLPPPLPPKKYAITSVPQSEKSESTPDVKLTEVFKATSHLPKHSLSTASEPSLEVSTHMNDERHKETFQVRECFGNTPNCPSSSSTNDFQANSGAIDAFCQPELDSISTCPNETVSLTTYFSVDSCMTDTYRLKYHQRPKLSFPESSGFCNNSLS
As to the kind of experiment: affinity purification with mass spectrometry; HEK-293T transfected with Flag-USP53, lysed in IP buffer (20 mM Tris-HCl pH 7.4, 150 mM NaCl, 1 mM EDTA, 1% NP-40); anti-flag antibody or IgG with Protein A/G magnetic beads, more than 3 h at 4 °C; gel, silver staining, MS.

Consider “cytochrome c (CYCS), endogenous (from UniProt P99999 1-105)”, for which the binding entry is “binds”.
